Measurements reported in doi:10.1101/2021.12.08.471779.
Numbering of substitutions follows the chain as printed. Results are given in words; binding and its absence hold for the method and conditions named. In cells and extracts the contact can be indirect. Some binding calls cover weakened binding; strength is not graded here.

Amino acid sequences for entries named in this document (tags omitted). A change or cut given only in a name is not applied to a line headed by its entry.
UniProt P02929, whole entry, looked up, stated change not applied: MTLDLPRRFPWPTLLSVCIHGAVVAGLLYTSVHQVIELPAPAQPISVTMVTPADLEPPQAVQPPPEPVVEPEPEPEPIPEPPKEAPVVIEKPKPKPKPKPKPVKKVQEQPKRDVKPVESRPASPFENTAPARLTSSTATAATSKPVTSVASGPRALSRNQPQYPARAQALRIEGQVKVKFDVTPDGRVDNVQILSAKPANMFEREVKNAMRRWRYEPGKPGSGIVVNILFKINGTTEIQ

How the values were obtained:
Assay in all cases: cross-linking
[1] = biological target: T1, FepA T51C (Escherichia coli K-12) (UniProt P05825)
T1 sequence: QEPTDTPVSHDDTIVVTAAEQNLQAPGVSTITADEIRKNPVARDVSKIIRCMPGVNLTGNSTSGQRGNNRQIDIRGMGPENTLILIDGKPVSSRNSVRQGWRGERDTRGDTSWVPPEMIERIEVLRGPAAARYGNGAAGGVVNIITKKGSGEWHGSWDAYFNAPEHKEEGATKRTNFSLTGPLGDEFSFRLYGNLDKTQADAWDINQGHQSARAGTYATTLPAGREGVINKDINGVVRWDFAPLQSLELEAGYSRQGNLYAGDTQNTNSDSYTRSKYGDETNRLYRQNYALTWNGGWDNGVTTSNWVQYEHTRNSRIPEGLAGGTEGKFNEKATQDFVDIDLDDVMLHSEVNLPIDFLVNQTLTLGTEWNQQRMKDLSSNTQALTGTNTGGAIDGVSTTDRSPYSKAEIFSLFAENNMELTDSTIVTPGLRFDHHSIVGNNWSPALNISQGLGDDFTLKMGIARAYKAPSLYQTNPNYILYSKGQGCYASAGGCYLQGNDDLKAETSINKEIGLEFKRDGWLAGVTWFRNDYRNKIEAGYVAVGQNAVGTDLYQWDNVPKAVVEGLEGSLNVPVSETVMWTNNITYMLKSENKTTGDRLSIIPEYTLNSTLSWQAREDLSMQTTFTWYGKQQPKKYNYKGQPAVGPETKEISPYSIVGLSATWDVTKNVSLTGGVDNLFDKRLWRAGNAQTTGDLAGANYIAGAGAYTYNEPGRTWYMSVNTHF

[2] = biological target: T2, FepA S112C (Escherichia coli K-12) (UniProt P05825)
T2 sequence: T1 sequence with C51T, S112C

[3] = biological target: T3, FepA S46C (Escherichia coli K-12) (UniProt P05825)
T3 sequence: T1 sequence with S46C, C51T

Substance | binding [1] | binding [2] | binding [3]
TonB C18G A209C (from UniProt P02929 1-239) | no binding | no binding | no binding
TonB C18G H20A Q160C (from UniProt P02929 1-239) | – | – | no binding
TonB C18G R214C (from UniProt P02929 1-239) | – | no binding | no binding
TonB C18G R204C (from UniProt P02929 1-239) | no binding | no binding | no binding
TonB C18G R212C (from UniProt P02929 1-239) | no binding | no binding | no binding
TonB C18G M201C (from UniProt P02929 1-239) | – | no binding | no binding
TonB C18G N208C (from UniProt P02929 1-239) | no binding | no binding | no binding
TonB C18G Q160C (from UniProt P02929 1-239) | binds | no binding | binds
TonB C18G V206C (from UniProt P02929 1-239) | no binding | no binding | no binding
